PMC12624060, “Structures of human organellar SPFH protein complexes” (Nature Communications, 2025)
No constants are given. Whether binding was seen depends on the method and setting. For part of these data: In cells and extracts the contact can be indirect. Some entries that bind do so weakly or less than the wild type. For part of these data: Sequences can lack the tags named with a protein. Blank lines part the entries; values can stand above or below the molecule they belong to.

Amino acid sequences for entries named in this document (tags omitted). Residues count along the entry.
UniProt O94905: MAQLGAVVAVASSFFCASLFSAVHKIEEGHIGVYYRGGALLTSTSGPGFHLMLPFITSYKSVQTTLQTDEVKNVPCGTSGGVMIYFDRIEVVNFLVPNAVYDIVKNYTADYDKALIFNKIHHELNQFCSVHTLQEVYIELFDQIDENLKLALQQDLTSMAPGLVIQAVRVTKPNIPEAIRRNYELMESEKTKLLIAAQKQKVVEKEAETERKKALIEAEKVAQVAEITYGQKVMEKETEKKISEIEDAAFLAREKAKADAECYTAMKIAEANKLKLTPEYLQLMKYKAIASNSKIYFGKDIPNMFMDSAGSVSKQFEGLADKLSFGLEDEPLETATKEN
UniProt Q9UQ90, residues 106-795: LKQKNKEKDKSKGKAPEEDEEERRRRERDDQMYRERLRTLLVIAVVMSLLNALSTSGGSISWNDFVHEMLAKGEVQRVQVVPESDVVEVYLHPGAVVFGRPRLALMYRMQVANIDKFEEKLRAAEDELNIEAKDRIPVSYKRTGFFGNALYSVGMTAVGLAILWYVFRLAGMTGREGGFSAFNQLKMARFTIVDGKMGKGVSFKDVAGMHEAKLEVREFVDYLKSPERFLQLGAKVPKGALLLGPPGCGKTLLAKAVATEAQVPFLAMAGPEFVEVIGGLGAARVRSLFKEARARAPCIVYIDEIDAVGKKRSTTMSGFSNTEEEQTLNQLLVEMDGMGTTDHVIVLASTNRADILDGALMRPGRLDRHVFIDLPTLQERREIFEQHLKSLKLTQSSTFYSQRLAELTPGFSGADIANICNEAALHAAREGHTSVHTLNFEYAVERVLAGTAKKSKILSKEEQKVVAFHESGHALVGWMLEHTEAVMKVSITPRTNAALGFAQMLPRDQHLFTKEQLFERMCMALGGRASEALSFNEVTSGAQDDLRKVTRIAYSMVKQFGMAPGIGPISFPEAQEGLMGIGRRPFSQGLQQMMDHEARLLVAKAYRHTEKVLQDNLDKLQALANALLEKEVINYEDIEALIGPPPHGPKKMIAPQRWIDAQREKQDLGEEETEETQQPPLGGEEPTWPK

Assays:
[1] = biological target: Erlin2 (endogenous) (human (endogenous in HEK293T or Flp-In 293 T-REx)) (UniProt O94905); experiment: native gel or EMSA; BN-PAGE (3-12% Bis-Tris) of 1% DDM lysates of wildtype, Erlin1 KO and Erlin2 KO cells, immunoblot of the endogenous proteins
[2] = biological target: T1, N-terminally Strep-tagged PHB1 (stable Expi293F line) (human) (UniProt P35232); experiment: pull-down; StrepTactin purification of Strep-PHB1 (with PHB2) from DDM/CHS-solubilised Expi293F membranes, immunoblot of the eluate
T1 sequence: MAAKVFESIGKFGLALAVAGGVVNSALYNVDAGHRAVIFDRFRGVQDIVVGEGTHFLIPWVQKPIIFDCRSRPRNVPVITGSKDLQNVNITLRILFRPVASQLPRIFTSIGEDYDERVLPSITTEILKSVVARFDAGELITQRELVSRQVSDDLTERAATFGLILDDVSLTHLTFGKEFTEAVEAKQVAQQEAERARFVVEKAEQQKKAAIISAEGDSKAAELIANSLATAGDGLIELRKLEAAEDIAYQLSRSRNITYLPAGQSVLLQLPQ

[3] = biological target: Erlin1 (endogenous) (human (endogenous in HEK293T or Flp-In 293 T-REx)) (UniProt O75477); experiment: native gel or EMSA; BN-PAGE (3-12% Bis-Tris) of 1% DDM lysates of wildtype, Erlin1 KO and Erlin2 KO cells, immunoblot of the endogenous proteins

binding [1]: binds
Molecule: Erlin2 (endogenous) (from UniProt O94905 1-339)

binding [2]: binds weakly
Molecule: SPG7 (from UniProt Q9UQ90 106-795) (enzyme)

binding [3]: binds
B1: Erlin1 (endogenous) (protein, UniProt O75477 1-348)
chain: MNMTQARVLVAAVVGLVAVLLYASIHKIEEGHLAVYYRGGALLTSPSGPGYHIMLPFITTFRSVQTTLQTDEVKNVPCGTSGGVMIYIDRIEVVNMLAPYAVFDIVRNYTADYDKTLIFNKIHHELNQFCSAHTLQEVYIELFDQIDENLKQALQKDLNLMAPGLTIQAVRVTKPKIPEAIRRNFELMEAEKTKLLIAAQKQKVVEKEAETERKKAVIEAEKIAQVAKIRFQQKVMEKETEKRISEIEDAAFLAREKAKADAEYYAAHKYATSNKHKLTPEYLELKKYQAIASNSKIYFGSNIPNMFVDSSCALKYSDIRTGRESSLPSKEALEPSGENVIQNKESTG
